Measurements from US11246873B2, “Directed differentiation of oligodendrocyte precursor cells to a myelinating cell fate” (The Scripps Research Institute, priority 2011, dated 2022).
For part of these data: At least one structure is not confirmed: it was looked up by name or label, or the drawing left a doubt. Some entries share one result that the patent states for a list of compounds.

Test system: rat optic nerve derived OPCs
Assay: High content imaging assay of OPC differentiation (MBP immunostaining, OPERA)
Format: cell-based
Conditions: OPC sample cultured with agent at maximum potency
Procedure: FIG. 1A-C. […] The calculated EC50 values were determined using appropriate Graphpad Prism 5.0 curve fitting software. […] OPCs were plated in 384 well plates at 1000 cells per well in OPC media containing basal PDGF-αα (2 ng/mL) and treated with serial dilutions of compounds. Following six days of compound treatment, cells were fixed and subjected to immunofluorescence analysis using anti-myelin basic protein (MBP) antibody. Image acquisition and quantification of MBP staining was performed using the OPERA imaging system.
FIG. 11A-B. Screen to identify inducers of OPC differentiation. (A) OPCs were maintained as proliferating A2B5-positive cells under basal growth conditions (Neurobasal medium, B27 supplement without Vitamin A, non-essential amino acids, L-Glutamine, 30 ng/ml PDGF). OPCs were plated in basal differentiation media (Neurobasal medium, B27 supplement without Vitamin A, non-essential amino acids, L-Glutamine, 2 ng/ml PDGF), treated with DMSO (<0.1%) or thyroid hormone (1 uM), fixed after 6 days in culture, and stained using antibodies for CNP, O4, or MBP. […] (B) Screen strategy using A2B5 positive OPCs cultured under basal differentiation conditions and treated with compounds for 6 days to identify small molecules that induce the differentiation of OPCs to mature, MBP expressing oligodendrocytes.
FIG. 12A-B. Primary hit confirmation. (A) Dose response assay used to confirm primary screening hits and determine potency (EC50). (EC50) is defined as the concentration that results in a half maximal increase in the percentage of total cells that express MBP as detected by immunostaining. […] Cells were fixed and immunostained using antibodies for MBP. Error bars represent standard deviations from 3 replicate experiments. […]
FIG. 21. […] OPCs were plated in differentiation medium (2 ng/ml PDGF) and treated with various concentrations of compounds for 6 days. Cells were fixed and immunostained for MBP.
A large-scale small molecule screen was conducted to identify small molecules that promote the differentiation of oligodendrocyte precursor cells (OPCs) to a mature myelinating fate. High content imaging was used to detect in-well differentiation of rat optic nerve derived OPCs. Rat optic nerve derived OPCs were expanded en masse in OPC media containing 30 ng/mL PDGFαα. To screen for small molecule inducers of OPC differentiation, OPCs (cultured for fewer than 15 passages) were plated in poly-D-lysine coated 384 well culture plates in OPC Media containing 2 ng/mL PDGFαα and immediately treated with compounds at a final concentration of 6 μM (0.6% DMSO). Compound treated cells were incubated at 37° C., 5% CO2 for 6 days. At the end of 6 days, cells were fixed in 4% paraformaldehyde and subjected to immunofluorescence analysis. Anti-Myelin Basic Protein monoclonal antibody (a.a. 129-138, clone 1 monoclonal antibody, Millipore) (1:1000 dilution) in blocking buffere solution (3% BSA, 0.3% Triton X-100 in PBS) was added to fixed and washed cells and incubated at 4° C. overnight.

| Structure (SMILES) | percentage of resulting MBP-positive cells |
| --- | --- |
| CN1[C@@H]2CC[C@H]1C[C@@H](OC(c1ccccc1)c1ccccc1)C2 [benztropine] | at least 10% |
| CCN(CC)CCOCCOC(=O)C1(c2ccccc2)CCCC1 [carbetapentane] | at least 10% |
| CN1CCC[C@@H]1CCO[C@](C)(c1ccccc1)c1ccc(Cl)cc1 [clemastine] | at least 10% |
| OCc1cc(C(O)CNCCCCCCOCCCCc2ccccc2)ccc1O (stereo not drawn) [salmeterol] | at least 10% |
| CN1CCN(CCCN2c3ccccc3Sc3ccc(C(F)(F)F)cc32)CC1 [trifluoperazine] | at least 10% |

Test system: PLP induced EAE mice
Assay: not given
Conditions: various doses i.p. (FTY720 1, 0.1, 0.01 mg/kg; interferon-β 10,000, 3000, 1000 U per mouse)
Procedure: (A-E) SJL mice were immunized with proteolipid peptide (PLP) and pertussis toxin and monitored daily with scoring on the standard clinical EAE scale (0-5). Compounds were administered daily for the duration of the study in saline at 10 mg/kg via intra-peritoneal injection (0.1 ml), starting on the day of the appearance of clinical EAE symptoms (day 10). […] Mean clinical EAE score and standard error of mean (SEM) are shown for each study group.
FIG. 25. […] EAE was induced in mice using PLP and pertussis toxin. […] Prophylactic dosing is defined as administration of compound commenced on the day of PLP injection. Error bars indicate standard deviation of the mean within each group of 8 mice.
(A-F) EAE was induced in mice using PLP and pertussis toxin. […] Error bars indicate standard deviation of the mean within each group of 8 mice.
(A-F) EAE was induced in mice by injecting PLP in complete Freund's adjuvant (CFA) and pertussis toxin, and the animals were scored daily for clinical severity of disease on a scale of 0-5. […] Error bars indicate standard deviation of the mean within each group of 8-10 mice.
10 week old SJL mice were immunized with PLP emulsion and pertusis toxin to induce EAE. […] The mice were scored daily on a standard EAE scale of 0-5. […]

| Structure (SMILES) | dose dependence of clinical EAE scores |
| --- | --- |
| CCCCCCCCc1ccc(CCC(N)(CO)CO)cc1 [FTY720, fingolimod] | dose dependent activity |
